# Screening data, single-dose tests

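Whole-cell growth test on Mycobacterium tuberculosis, read after 4 days in a medium based on cholesterol and the lipid DPPC; the read-out is not stated. Concentration: 500 µM. Direction is inferred from retests: higher values go with more growth inhibition. Of about 18,000 compounds tested this way, about 900 (5%) reached 50% or more in at least one test.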

The filed quantity is “Percent Effect” (%). The controls that fix the scale are not given in the record; negative values are as filed. This is an unselected part of the compounds tested.

- Cc1c(C(=O)N2CCNC(=O)C2)oc2ccc(Cl)cc12 | 30.11%
- CNC(=O)C(C)OC(=O)c1cc(C)cc(C)c1 (stereo not drawn) | -7.834%
- COCC(=O)NCC(c1ccsc1)N(C)C (stereo not drawn) | -2.307%
- CN(C)C(=O)C1CCCN1C(=O)c1cccc(C#N)c1 (stereo not drawn) | -8.863%
- Cc1nnc(SCC(=O)NCCOc2nonc2C)s1 | -0.302%
- CCN1CCC(C(=O)NCc2cc(C)nn2C)CC1 | 5.67%
- CS(=O)(=O)N1CCC(Cc2ccccc2)C1 (stereo not drawn) | 61.42%
- Cc1nn(C)c(C)c1NC(=O)NCCc1c[nH]cn1 | 1.001%
- NC(=O)CCC1CCN(Cc2ccc(N)nc2)CC1 | -16.85%
- CC(=O)N1CCN(c2ccccc2F)CC1 | 7.948%
- Cn1ccnc1C(NC(=O)c1cnc(O)cn1)C1CC1 (stereo not drawn) | 6.224%
- COc1cccn(CC(=O)N(C)C2CCSCC2)c1=O | 4.142%
- CCCC(=O)NCCCNC(=O)c1ccc(C)nc1 | -7.484%
- CNC(=O)C1CC(=O)N(C2CCCCC2)C1 (stereo not drawn) | -13.52%
- CC(=O)c1cccc(NC(=O)NCc2cc[nH]n2)c1 | 15.21%
- CN1CCN(CC(O)CN(C)c2ccccn2)CC1 (stereo not drawn) | 10.69%
- N[C@@H]1CCN(Cc2ccc(F)c(C(F)(F)F)c2)C[C@H]1O | 29.54%
- CC(C)Oc1ccc(C(CN)N(C)C)cc1 (stereo not drawn) | 49.93%
- CC(C#N)N1CCN(C(=O)OC(C)(C)C)CC1 (stereo not drawn) | -1.672%
- O=S(=O)(CC(O)CNCc1ccccn1)c1cccs1 (stereo not drawn) | 27.18%
- CCOCCN1CCN(CCCN2CCCC2=O)CC1 | -18.47%
- COC(=O)c1cccc2c1CCCN2C(=O)CSC | 10.5%
- CCCc1nnc(NCc2cccnc2)o1 | 4.08%
- CCN1CCCN(C(=O)Nc2ccccc2)CC1 | 0.5669%
- CN(C)CCOc1ccc(C#N)cc1 | 14.54%
- Cc1cc(C(=O)OCc2cncs2)cc(O)n1 | 3.537%
- COC(=O)Cn1cnc2c(=O)n(C)c(=O)n(C)c21 | -3.286%
- COc1ccc(N(CC(N)=O)S(C)(=O)=O)cc1OC | 8.306%
- CN(C)C(CNC(=O)CN1CCCC1=O)c1ccco1 (stereo not drawn) | 0.6911%
- O=C(C1CCC1)N1C[C@@H](O)[C@H](NCc2cccnc2)C1 | 8.194%
- O=C(NC1CCCN(c2cccnc2)C1=O)C1CCC1 (stereo not drawn) | -1.153%
- c1cn(C2CCNC2)nn1 (stereo not drawn) | 1.959%
- Cc1cc(C(=O)N2CCOCC2C#N)ccc1Cl (stereo not drawn) | 18.26%
- CC(C)C1CCCN(S(N)(=O)=O)CC1 (stereo not drawn) | 22.42%

4 of the entries, repeated:

| Compound | percent effect |
|---|---|
| `COC(=O)Cn1cnc2c(=O)n(C)c(=O)n(C)c21` | -3.286 |
| `O=C(C1CCC1)N1C[C@@H](O)[C@H](NCc2cccnc2)C1` | 8.194 |
| `Cn1ccnc1C(NC(=O)c1cnc(O)cn1)C1CC1` (stereo not drawn) | 6.224 |
| `c1cn(C2CCNC2)nn1` (stereo not drawn) | 1.959 |

Source: ChEMBL document CHEMBL3988442, “University of Dundee, Small-Polar-MMV Screening Library” (2021).